Assay results reported in article PMC7998926 (Microorganisms, 2021).
Where two headings read alike, the source gives them in different places.

Assays:
[1] = system: EBOV/Mak; details: read-out: IC50 (Huh7); cited from earlier work
[2] = system: EBOV; assay: microbe, parasite or virus in culture; assay type: cell-based, Ebola virus; details: Zaire ebolavirus, read-out: IC50 (average) (μM)
[3] = system: EBOV; details: read-out: IC50 (HepG2); cited from earlier work

Compound | IC50 [1] | IC50 [2] | IC50 [3]
O=C1CCc2ccc(OCCCCN3CCN(c4cccc(Cl)c4Cl)CC3)cc2N1 [Aripiprazole] | 7.8 µM | 5.78 µM | 3.76 µM
CCN(CC)CCOc1ccc(C(=C(Cl)c2ccccc2)c2ccccc2)cc1 [Clomiphene] | 1.96 µM | 1.36 µM | 0.76 µM
